Measurements reported in PubChem BioAssay AID504744 (Drosophila RNAi Screening Center, 2011).
Purpose: 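Identify dsRNAs that increase or decrease phospho-dAkt after insulin treatment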 (primary screen). System: Drosophila Kc167 cells. Reagents: long dsRNA against Drosophila genes, 250 ng dsRNA per well of a 384-well plate. Duration: 3 days of knock-down, then overnight serum-free starvation before stimulation. Challenge: bovine insulin at 387 nM for 10 minutes after 12 h without serum. Detection: 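In-cell antibody fluorescence for phospho-dAkt in each well over DNA-dye signal, with log2 residuals expressed as z-scores adjusted for cell count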. Active means: 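Under insulin, a gene counts as a hit if the average z-score of two replicates lies above 2.5 or below -2.5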.
The deposit covers about 23,000 reagents; this is an unselected part of those with a known target gene and a result. Of all reagents, 98 (0.43%) were called active. 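Only hit calls are given; the phospho-dAkt signals, z-scores and hit direction were not deposited.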 The numbers tell different reagents against one gene apart. A plus sign joins genes that one reagent is predicted to hit.

scpr-A + scpr-C | Outcome: inactive
Tom | Outcome: inactive
CG13404 | Outcome: inactive
Rpn8 | Outcome: inactive
cindr #1 | Outcome: inactive
cindr #2 | Outcome: inactive
NitFhit | Outcome: inactive
Unc-76 #1 | Outcome: inactive
Unc-76 #2 | Outcome: inactive
larp #1 | Outcome: inactive
larp #2 | Outcome: inactive
larp #3 | Outcome: inactive
CG10073 | Outcome: inactive
Tengl3 | Outcome: inactive
EbpIII | Outcome: inactive
CG14857 | Outcome: inactive
msd5 | Outcome: inactive
RpL37-2 | Outcome: inactive
Ugt304A1 | Outcome: inactive
SCAP #1 | Outcome: inactive
SCAP #2 | Outcome: inactive
CG15705 | Outcome: inactive
CG30369 | Outcome: inactive

No new results follow: an excerpt of the list.
Unc-76 #1 | Outcome: inactive
Unc-76 #2 | Outcome: inactive
